These are yes or no findings as the source states them, for the method shown. Some entries that bind do so weakly or less than the wild type. Where a sequence is shown, tags or fusion partners need not be part of it.
Biological target: T1, bacteriophage T4 antisigma protein AsiA with a C-terminal hexahistidine tag (bacteriophage T4) (UniProt P32267)
T1 sequence: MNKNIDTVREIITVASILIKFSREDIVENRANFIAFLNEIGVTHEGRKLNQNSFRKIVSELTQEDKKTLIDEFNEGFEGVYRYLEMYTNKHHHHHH
Assay: Ni2+-NTA agarose co-immobilization

By UniProt entry, the sequences of proteins in these tests, tags left out. Residues count along the entry.
UniProt P00579, residues 568-600: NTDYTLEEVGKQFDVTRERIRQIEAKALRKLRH

## synthetic peptide corresponding to sigma-70 amino acids 568-600 (from UniProt P00579 568-600)
  binding: binds

Source: patent US20020151006A1 (ROCKEFELLER UNIVERSITY, published 2002)
